Values of other authors, collected in US9707253B2, “High-loading, controlled-release magnesium oral dosage forms and methods for making and using same” (Pharmalyte Solutions, LLC, priority 2008, dated 2017).
Some entries share one result that the patent states for a list of compounds.

Details: healthy subjects, approximately 21 mEq, urinary excretion; cited from earlier work

Question: For N[C@@H](CC(=O)[O-])C(=O)[O-].[Mg+2] [magnesium aspartate], which fractional absorption average is on record?
Answer: 9-11%
